From paper doi:10.1101/2020.05.29.123034
Where two headings read alike, the source gives them in different places. These are yes or no findings as the source states them, for the method shown. In cells and extracts the contact can be indirect. Some binding calls cover weakened binding; strength is not graded here. Sequences can lack the tags named with a protein. Blank lines part the entries; values can stand above or below the molecule they belong to.

Chains of the proteins cited; added tags and fusions are not shown. Residues count along the entry.
UniProt P62813, residues 28-455: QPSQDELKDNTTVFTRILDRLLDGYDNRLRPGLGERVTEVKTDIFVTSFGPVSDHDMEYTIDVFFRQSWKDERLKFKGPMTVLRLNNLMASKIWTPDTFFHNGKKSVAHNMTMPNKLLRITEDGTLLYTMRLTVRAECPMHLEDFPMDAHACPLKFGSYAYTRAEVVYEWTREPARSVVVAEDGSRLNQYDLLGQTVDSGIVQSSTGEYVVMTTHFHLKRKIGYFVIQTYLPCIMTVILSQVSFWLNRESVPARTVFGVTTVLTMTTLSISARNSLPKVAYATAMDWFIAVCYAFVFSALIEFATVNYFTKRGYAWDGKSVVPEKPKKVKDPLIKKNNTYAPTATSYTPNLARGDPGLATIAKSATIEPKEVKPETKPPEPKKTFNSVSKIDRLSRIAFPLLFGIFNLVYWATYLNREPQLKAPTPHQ
UniProt O60331: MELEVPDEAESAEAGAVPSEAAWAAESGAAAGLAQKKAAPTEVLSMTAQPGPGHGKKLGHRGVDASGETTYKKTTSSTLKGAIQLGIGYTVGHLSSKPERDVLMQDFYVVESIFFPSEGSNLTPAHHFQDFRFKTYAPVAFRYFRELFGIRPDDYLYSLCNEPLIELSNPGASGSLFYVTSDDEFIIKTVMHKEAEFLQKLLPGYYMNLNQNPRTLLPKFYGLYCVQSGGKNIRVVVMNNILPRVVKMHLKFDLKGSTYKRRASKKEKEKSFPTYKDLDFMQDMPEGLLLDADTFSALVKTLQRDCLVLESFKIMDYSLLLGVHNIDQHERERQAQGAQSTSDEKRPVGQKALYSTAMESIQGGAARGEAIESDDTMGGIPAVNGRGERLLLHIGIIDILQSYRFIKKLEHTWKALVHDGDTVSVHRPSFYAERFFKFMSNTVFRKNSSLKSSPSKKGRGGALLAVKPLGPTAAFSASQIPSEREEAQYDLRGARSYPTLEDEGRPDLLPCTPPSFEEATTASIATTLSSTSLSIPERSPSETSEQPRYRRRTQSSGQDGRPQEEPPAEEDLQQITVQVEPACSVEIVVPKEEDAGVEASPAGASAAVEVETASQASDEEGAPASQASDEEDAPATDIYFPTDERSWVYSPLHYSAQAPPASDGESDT

Assays:
GST-MPP2-SH3GK (mouse) = biological target: T1, GST-MPP2-SH3GK (mouse) (UniProt Q9WV34); test: pull-down
T1 sequence: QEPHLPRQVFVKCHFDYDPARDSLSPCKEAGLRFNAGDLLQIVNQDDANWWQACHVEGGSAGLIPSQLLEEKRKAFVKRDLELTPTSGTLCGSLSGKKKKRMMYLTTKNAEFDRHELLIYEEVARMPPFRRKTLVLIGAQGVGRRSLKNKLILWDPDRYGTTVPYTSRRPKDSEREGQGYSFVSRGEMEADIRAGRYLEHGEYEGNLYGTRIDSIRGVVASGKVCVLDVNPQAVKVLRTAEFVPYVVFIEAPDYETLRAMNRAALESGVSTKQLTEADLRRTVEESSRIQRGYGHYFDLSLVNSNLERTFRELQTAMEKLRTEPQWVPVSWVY

EGFP-MPP2 (mouse) [1] = biological target: T2, EGFP-MPP2 (mouse) (UniProt Q9WV34); test: co-IP
T2 sequence: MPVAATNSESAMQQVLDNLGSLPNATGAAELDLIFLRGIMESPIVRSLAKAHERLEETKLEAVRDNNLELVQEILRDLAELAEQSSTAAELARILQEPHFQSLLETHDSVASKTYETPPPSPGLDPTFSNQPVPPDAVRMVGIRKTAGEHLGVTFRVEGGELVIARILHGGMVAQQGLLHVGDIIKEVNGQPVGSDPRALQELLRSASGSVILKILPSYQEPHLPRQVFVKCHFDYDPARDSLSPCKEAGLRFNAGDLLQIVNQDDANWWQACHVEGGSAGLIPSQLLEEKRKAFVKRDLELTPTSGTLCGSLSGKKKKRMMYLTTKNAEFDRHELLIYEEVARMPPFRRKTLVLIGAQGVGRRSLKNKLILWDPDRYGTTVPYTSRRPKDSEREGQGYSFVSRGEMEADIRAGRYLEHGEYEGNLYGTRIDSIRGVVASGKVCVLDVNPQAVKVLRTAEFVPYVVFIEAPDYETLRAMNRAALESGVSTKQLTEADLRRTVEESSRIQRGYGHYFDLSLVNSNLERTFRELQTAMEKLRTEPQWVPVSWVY

[2] = biological target: Untagged GABAA α1 (rat), overexpressed (rat) (UniProt P62813); test: co-IP
[3] = biological target: EGFP-tagged Pip5k1c (GFP-PIPK1 gamma 90) (UniProt O60331); test: co-IP
EGFP-MPP2 (mouse) [4] = biological target: T2, EGFP-MPP2 (mouse); test: co-IP; remark: listed apart in the source

Molecule: endogenous GABAA α1 from rat brain crude synaptosomes (from UniProt P62813 28-455) (receptor)
binding (GST-MPP2-SH3GK (mouse)): binds

B1: FLAG-tagged MPP2 (full length), in CHL V79 cells (protein, UniProt Q9WV34-1 1-552)
chain: T2 sequence
binding [2]: binds

B2: FLAG-tagged MPP2, in HEK293T cells (protein, UniProt Q9WV34-1 1-552)
chain: T2 sequence
binding [3]: binds

B3: FLAG-tagged Arhgef2 (protein, UniProt Q5FVC2 1-985)
chain: MSRIESLTRARIDRSKEQATKTREKEKMKEAKDARYTNGHLFTTISVSGMTMCYACNKSITAKEALICPTCNVTIHNRCKDTLANCTKVKQKQQKAALLRNNTALQSVSLRSKTTTRERPTSAIYPSDSFRQSLLGSRRGLSSLSLAKSVSTTNIAGHFNDESPLGLRQILSQSTDSLNMRNRTLSVESLIDEGVEVFYNELMSDFEMDEKDFEADSWSLAVDSSFLQQHKKEVMKKQDVIYELIQTELHHVRTLKIMTRLFRTGMLEELQMEPEVVQGLFPCVDELSDIHTRFLSQLLERRRQALCPGSTRNFVIHRLGDLLISQFSGSNAEQMRKTYSEFCSRHTKALKLYKELYARDKRFQQFIRKMTRSAVLKRHGVQECILLVTQRITKYPVLINRILQNSHGIEEEYQDLAAALGLVKELLSNVDQDVHELEKEARLQEIYNRMDPRAQTPVPGKGPFGRDELLRRKLIHDGCLLWKTATGRFKDVLLLLMTDVLVFLQEKDQKYIFTSLDKPSVVSLQNLIVRDIANQAKGMFLISSGPPEMYEVHAASRDDRTTWIRVIQQSVRLCPSREDFPLIETEDKAYLRRIKTKLQQKNQALVELLQMNVELFAEMVHFQALKAGFIGMPPPTLPRGLFRLESFESLRGERLLKDALREVEGLKDLLLGPCVDLPLTAREPALPVEADSGSCPGVTANGEARTFNGSIELCRADSDSSQKDRNGNQLRSPQEEALQPLVNLYGLLQGLQAVVVQQERLMEALFPEGPERWEKLSRANSRDGEAGRAAVASVTPEKQATELALLQRQHSLLQEELRRCQRLGEERATEAGSLEARLRESEQARALLEREAEEIRRQLAALGQNEPLPAEAPWARRPLDPRRRSLPAGDALYLSFNPPQPSRGHDRLDLPVTVRSLHRPFDDREAQELGSPEDRLQDSSDPDTCSEEEVSSRLSPPHSPRDFTRMQDIPEETESRDGEPTASES
binding (EGFP-MPP2 (mouse) [4]): binds

B4: FLAG-tagged Farp1 (protein, UniProt F1LYQ8 1-1049)
chain: MGEIEQKPTPASRLGAPENSGISTLERGQKPPPTPSGKLMTVKIQMLDDTQEAFEVPQRAPGKVLFDAVCNHLNLVEGDYFGLEFPDHRKIVVWLDLLKPIVKQIRRPKHVLVKFVVKFFPPDHTQLQEELTRYLFALQVKQDLAQGRLTCNDTSAALLISHIVQSEIGDFDEALDREHLAKNKYVPQQDALEDKIVEFHHSHIGQTPAESDFQLLEVARRLEMYGIRLHPAKDREGTKINLAVANTGILVFQGFTKINAFNWAKVRKLSFKRKRFLIKLRPDVNSSYQDTLEFLMAGRDFCKSFWKICVEHHAFFRLFEEPKPKPKPVLFSRGSSFRFSGRTQKQVLDYVKEGGHKKVQFERKHSKIHSTRSLVSQPTAPNSEVPKQSPQSASLTFGEGTESPSAQSCQQAKETKVCTLEPGPRQSPALSKSPSGSKAADGTAAAAPPEEEDEEEGGKDGIRPSNPQPPQPSTGSLTGSPHLSELSINSQGGAAPANVTLSPNLSPDNKQASPLISPLLNDQACPRTDDEEEGRRKRFPTDKAYYIAKEVSTTERTYLKDLEVIASWFQSTVSKEDSMPEALKSLIFPNFEPLHKFHTNFLKEIEQRLALWEGRSNAHIRGDYQRIGDVMLKNIQGMKHLAAHLWKHSEALEALETSIKGSRRLEHFCRDFELQKVCYLPLNTFLLRPLHRLMHYKQVLERLCKHHPPNHADFRDCRAALAEITEMVAQLHGTMIKMENFQKLHELKKDLIGIDNLVIPGREFIRLGSLSKLSGKGLQQRMFFLFNDVLLYTSRGLTASNQFKVHGQLPLYGMTIEESEEEWGVPHCLTLRGQRQSIIVAASSRSEMEKWLEDIQMAIDLAEKSNGPTPELLASSPPDNKSPDEATAADQESEDDLSASRTSLERQAPHRGNTMVHVCWHRSTSVSMVDFSIAVENQLSGNLLRKFKNSNGWQKLWVVFTNFCLFFYKSHQDSHPLASLPLLGYSLTIPSESENIHKDYVFKLHFKSHVYYFRAESEYTFERWMEVIRSATSSASRAHSLSHKESHLY
binding (EGFP-MPP2 (mouse) [4]): binds

Next, values leading:

binding (EGFP-MPP2 (mouse) [1]): binds
Molecule: HA-Gnao1 (from UniProt P59215-1 1-354)

binding (EGFP-MPP2 (mouse) [1]): binds
Molecule: FLAG-tagged Ppp3ca (Calcineurin subunit) (from UniProt P63329-1 1-521)
